Source: PubChem BioAssay AID1508600 (Functional Genomics Laboratory (NCATS/FGL), 2020)
Among all 53,000 sequences or so, about 3,700 (7%) were called active.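 Rule for the calls: active = gene knockdowns whose robust z-score for IL-1 alpha signal is at least 2 or at most -2, so actives lie on both sides; inactive = the rest.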 Some of the results follow.

Experiment: Components of the Cytosolic LPS Sensing Pathway: Gene Identification via Genome-wide siRNA Screen;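 note: robust z of the log signal after scaling to non-targeting control siRNA wells of the plate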
Settings: RAW264.7 macrophages, IL-1a HTRF, actives lie on both sides, screened at 100 nM (by protocol), cells primed 5 h with Pam3CSK4 first
Method in brief: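 Using IL-1a HTRF as read-out, the screen measured release from RAW264.7 cells after 48h siRNA knockdown (100 nM), 5 h Pam3CSK4 priming and 24 h cytosolic LipidA. Values were expressed relative to negative-control wells as robust z-scores.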
In the case of GGCCUGUUUGAACUCAUAGTT against Vrk3, the z-score was inactive: -1.01. In the case of CCACACUUUUCAGUAUAAUTT against Lin54, the z-score was inactive: 0.897. For GGGAAAGUCAUUCAUCAAGTT against Stc2, the z-score was inactive: 0.729. For GGUGUUGGAAGAGAUGCUGTT against Ap3m2, the z-score was inactive: 0.405. For GGCUGUAUGACUCAGCUCUTT against Olfr711, the z-score was inactive: -0.912. With CGGAUCAUUUACCCUUAUGTT against Kdm5d the z-score was inactive: -0.407. In the case of CCCUGCUUGAAUCUCUUCGTT against Tyk2, the z-score was inactive: -0.191. For GGACCAUGAGAAAUUUAAUTT against Nr2f1, the z-score was inactive: 1.41. With GGUUUUUGAGUUUCUGAUUTT against Vps8 the z-score was inactive: 1.28. In the case of GGGAAUGCAUAUUAUGCUATT against Dnajc7, the z-score was inactive: -0.16. With GCCAUGCUGACAAAGCUCATT against Hcn2 the z-score was inactive: -0.969. In the case of GGACUCAACUUGAAGAAAATT against Apoo, the z-score was inactive: 0.969. In the case of GCCGGGAGAAAUAAAUGGUTT against Mif, the z-score was inactive: -0.654. In the case of GCCCAGUUUGUCACAAAGCTT against Sorl1, the z-score was inactive: -0.276. In the case of GCCUUCUUCGACCGCUCAUTT against Zfp661, the z-score was inactive: -0.0972. With GGAUGUGAUCAUAGCAUGGTT against Slc35e1 the z-score was active: -2.07. With GCGCGAAUUCUACUUUGACTT against Kcnf1 the z-score was inactive: -1.08. In the case of GCAUGUAAGUACUAGAUUATT against Zfp619, the z-score was inactive: -0.0816. In the case of GGGUGAUAAGCAGUUAUACTT against Wdr75, the z-score was inactive: 1.33. In the case of CCCUGGGACUGAAUUUGGUTT against Scnn1b, the z-score was inactive: -0.199. With “GGAGACGACUGAAAUUGUCTT against A230083G16Rik” the z-score was inactive: -1.56. With GGAGAGGAGAGAGGGAAAATT against Sox4 the z-score was inactive: -1.65. With CCCUUUGACUAACCCUCUCTT against Tfpt the z-score was inactive: 0.985. For GACCGUCACCGCUAUGGAUTT against H4c14, the z-score was inactive: 0.781. In the case of CCUUGUUGACCCAACCAAATT against Nr1h3, the z-score was inactive: -0.314. In the case of GGAGAUGGAUAAUUACGAGTT against Ift27, the z-score was inactive: 0.344. With GGAGAUGACCAAGUACCACTT against Hdac1 the z-score was inactive: 0.544. For CCUUGAGCAAAUCACACAUTT against Stk32b, the z-score was active: 3.94. In the case of GGUCUAUCAGUCUAUCAGATT against Btbd1, the z-score was inactive: -0.143. With CCGAUUGGCUCGAUACUAUTT against Rps13 the z-score was inactive: -0.0912. In the case of GCUGACGAAACCAUUGAAUTT against Ugt1a7c, the z-score was inactive: -0.0843. For GGAUAAAACUAGAAAUGGGTT against Edem1, the z-score was inactive: 0.00188. With CCUCAUAGCCAGUCUUUUUTT against Pafah2 the z-score was inactive: -0.553. In the case of GCACAAGGAAAUCUAUCUATT against Cenpj, the z-score was inactive: 0.693. For GGAAGCAUACGAUCCUAUCTT against Catsperd, the z-score was inactive: 1.75. With GGUGCAAACUAAAAAUCUUTT against Enc1 the z-score was active: 2.73. With CCACGCUACAUGCAAUGGCTT against Itpka the z-score was inactive: 0.0149. For GCUGUACGAGCAUACUGUGTT against Tnxb, the z-score was inactive: -1.46. With GGAAGACGAAGACGACAUUTT against Ercc3 the z-score was inactive: 0.715. With GGAAGAAGGGCUUUCUUUGTT against Zbtb24 the z-score was inactive: 0.25. In the case of GGAGAAUUAAAAUGUGAAGTT against Hsd17b4, the z-score was inactive: 0.161. With GCCACCAUUAUGGCUAUGGTT against Pcsk4 the z-score was inactive: 0.497. In the case of GGAAGUGAAGGAAAGCAUCTT against Vwa2, the z-score was inactive: -0.631. For CCGGUUUGGGAAAAAGAAATT against Olfr610, the z-score was inactive: -0.865. With GGCUUGUUUCUGUGAUGAATT against Zfp330 the z-score was inactive: -1. With CCUAUGAAGGUGAAUGCUUTT against Fbxl4 the z-score was inactive: 0.721. With GGACAUUCUCAAAUCUUGATT against Praf2 the z-score was inactive: 0.244. For GCUUGUGGAAGAACCUACUTT against Hoxc13, the z-score was inactive: -0.345. For CCACUUUACAGUGUUGAUATT against Eaf1, the z-score was inactive: 0.568. With GUGGUUUGCAUUUUUCUUUTT against Olfr134 the z-score was inactive: -0.626. In the case of GGAACAUAGUAGCAUGCCATT against P3h3, the z-score was inactive: -1.2. In the case of CGACUAUCAGCAGCUGAAGTT against Igf1r, the z-score was active: 5.27. For CGGACAACGUGGCUUUGUCTT against Pstpip1, the z-score was inactive: 0.539.
